Measured values taken from PMC3120833.
No constants are given. Whether binding was seen depends on the method and setting. In cells and extracts the contact can be indirect. Some binding calls cover weakened binding; strength is not graded here.

Protein sequences, listed by entry. Tags and fused reporters are not part of them.
UniProt Q93009: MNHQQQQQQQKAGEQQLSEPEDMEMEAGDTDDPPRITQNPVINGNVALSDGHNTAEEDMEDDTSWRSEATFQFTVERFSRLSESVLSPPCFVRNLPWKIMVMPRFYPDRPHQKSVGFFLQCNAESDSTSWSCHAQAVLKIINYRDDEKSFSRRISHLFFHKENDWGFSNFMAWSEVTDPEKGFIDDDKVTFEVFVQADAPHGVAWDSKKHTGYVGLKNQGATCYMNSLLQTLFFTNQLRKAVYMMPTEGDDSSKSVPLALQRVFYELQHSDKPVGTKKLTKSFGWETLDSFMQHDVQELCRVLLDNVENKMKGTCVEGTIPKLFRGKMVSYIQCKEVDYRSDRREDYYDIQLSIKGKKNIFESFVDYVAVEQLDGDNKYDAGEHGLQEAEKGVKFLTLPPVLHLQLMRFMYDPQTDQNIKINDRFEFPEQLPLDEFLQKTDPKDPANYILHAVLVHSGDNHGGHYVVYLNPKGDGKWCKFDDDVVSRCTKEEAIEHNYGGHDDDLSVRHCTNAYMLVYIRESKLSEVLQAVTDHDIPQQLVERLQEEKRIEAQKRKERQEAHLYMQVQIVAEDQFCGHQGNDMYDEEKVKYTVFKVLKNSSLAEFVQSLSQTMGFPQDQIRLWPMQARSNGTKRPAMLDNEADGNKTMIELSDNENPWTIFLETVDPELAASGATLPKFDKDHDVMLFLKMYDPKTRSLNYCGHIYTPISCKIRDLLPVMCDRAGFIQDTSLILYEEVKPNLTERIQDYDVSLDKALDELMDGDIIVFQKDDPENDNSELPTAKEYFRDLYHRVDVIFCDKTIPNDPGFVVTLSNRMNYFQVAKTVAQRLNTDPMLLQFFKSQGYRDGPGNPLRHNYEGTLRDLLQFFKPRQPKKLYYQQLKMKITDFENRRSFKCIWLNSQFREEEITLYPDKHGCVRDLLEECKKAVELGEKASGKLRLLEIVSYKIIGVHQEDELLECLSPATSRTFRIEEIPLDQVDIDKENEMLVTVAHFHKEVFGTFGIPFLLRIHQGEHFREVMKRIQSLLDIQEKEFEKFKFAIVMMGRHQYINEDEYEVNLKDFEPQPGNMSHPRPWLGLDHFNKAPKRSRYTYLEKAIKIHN

Biological target: herpesvirus-associated ubiquitin-specific protease (HAUSP), endogenous in HEK293 cells (human (endogenous in HEK293)) (UniProt Q93009)
Assay: co-IP; HEK293 cells harvested and immunoprecipitated with anti-ING1 or anti-HAUSP, controls mouse anti-GST and rabbit pre-immune serum; blotted for HAUSP (USP7) or ING1

- binding: binds
B1: ING1, endogenous in HEK293 cells (protein, UniProt Q9UK53-2 1-279)
chain: MLSPANGEQLHLVNYVEDYLDSIESLPFDLQRNVSLMREIDAKYQEILKELDECYERFSRETDGAQKRRMLHCVQRALIRSQELGDEKIQIVSQMVELVENRTRQVDSHVELFEAQQELGDTAGNSGKAGADRPKGEAAAQADKPNSKRSRRQRNNENRENASSNHDHDDGASGTPKEKKAKTSKKKKRSKAKAEREASPADLPIDPNEPTYCLCNQVSYGEMIGCDNDECPIEWFHFSCVGLNHKPKGKWYCPKCRGENEKTMDKALEKSKKERAYNR
